# At least one peptide structure holds a part that was inferred or is arguable (an end, a ring closure or a residue). No end group written: not given here.
# Key:
# Papain = target: T1, Papain (Carica papaya, UniProt P00784); assay: Inhibition of protease digestion of fluorescent labeled casein: papain; assay type: biochemical; details: fluorescent labeled casein substrate
# T1 construct: purchased
# T1 sequence (P00784 134-345): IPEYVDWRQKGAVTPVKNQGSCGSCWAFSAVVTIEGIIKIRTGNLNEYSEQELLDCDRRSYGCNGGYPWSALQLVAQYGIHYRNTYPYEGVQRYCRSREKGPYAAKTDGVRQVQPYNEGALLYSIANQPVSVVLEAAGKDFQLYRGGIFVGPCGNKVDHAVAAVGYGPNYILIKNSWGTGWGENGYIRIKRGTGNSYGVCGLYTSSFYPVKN
# Method: The ability of Rev4 to inhibit four different classes of proteases was tested using fluorescent labeled casein as substrate under the following conditions:
# Each protease was incubated with substrate (5 μg/mL fluorescent labeled casein; Molecular Probes Inc., Eugene, Oreg.) and peptide in a total volume of 200 μL in a 96-well microtiter plate. Before use, papain was activated with cysteine (Arnon, 1970, Methods in Enzymology 19:226–44). After incubation at room temperature for one hour, fluorescence due to casein digestion was measured in a Luminescence Spectrometer (LS50B, Perkin Elmer Ltd., England) with an excitation wavelength of 505 nm and an emission wavelength of 513 nm. The blank control contained the substrate, buffer and peptide but lacked the protease.
# [1] = system: Cercospora spp., Colletotrichum spp., Fusarium spp. and Helminthosporium spp.; assay: Blind testing against plant pathogens by two independent research groups; assay type: cell-based
substance,measurement,setting,value
"RRWPWWPWKWPLI-NH2 [Rev4, Arg Arg Trp Pro Trp Trp Pro Trp Lys Trp Pro Leu Ile]",inhibition of papain (in words),Papain,inhibit
same,activity against important plant pathogens (in words),[1],broad spectrum activity

# From patent US7214766B2 (priority 1998, dated 2007)
